Data: patent publication US20150140001A1 (Scripps Research, published 2015)
Results are given in words; binding and its absence hold for the method and conditions named.

B1: clec14a-CTLD IgG clone 1 (antibody, V domains shown)
VH: EVQLLESGGGLVQPGGSLRLSCAASGFTFSGYDMSWVRQAPGKGLEWVSGIYPDGGNTYYADSVKGRFTISRDNSKNTLYLQMNSLRAEDTAVYYCARGATWWVLGPFDYWGQGTLVTVSS
VL: QSVLTQPPSASGTPGQRVTISCTGSSSNIGNNSVTWYQQLPGTAPKLLIYADSHRPSGVPDRFSGSKSGTSASLAISGLRSEDEADYYCGAWDDSLSGYVFGGGTKLTVL
notes: scFv converted to IgG; Lambda light chain, detected with anti-human lambda antibody
B2: clec14a-CTLD IgG clone 4 (antibody, V domains shown)
VH: EVQLLESGGGLVQPGGSLRLSCAASGFTFSGYYMSWVRQAPGKGLEWVSVIYSGDGSTYYADSVKGRFTISRDNSKNTLYLQMNSLRAEDTAVYYCARGLNSSSALPFDYWGQGTLVTVSS
VL: QSVLTQPPSASGTPGQRVTISCSGSSSNIGSNAVNWYQQLPGTAPKLLIYADSNRPSGVPDRFSGSKSGTSASLAISGLRSEDEADYYCGSWDYSLSAYVFGGGTKLTVL
B3: clec14a-CTLD IgG clone 3 (antibody, V domains shown)
VH: EVQLLESGGGLVQPGGSLRLSCAASGFTFSDYYMSWVRQAPGKGLEWVSLISYDGGSTYYADSVKGRFTISRDNSKNTLYLQMNSLRAEDTAVYYCARSNDWFDYWGQGTLVTVSS
VL: QSVLTQPPSASGTPGQRVTISCSGSSSNIGSNNVYWYQQLPGTAPKLLIYYDSQRPSGVPDRFSGSKSGTSASLAISGLRSEDEADYYCGAWDDSLSAYVFGGGTKLTVL
notes: Lambda light chain
B4: clec14a-CTLD IgG clone 2 (antibody, V domains shown)
VH: EVQLLESGGGLVQPGGSLRLSCAASGFTFSSYDMSWVRQAPGKGLEWVSVISPDSSSTYYADSVKGRFTISRDNSKNTLHLQMNSLRAEDTAVYYCARHTGWQSRPHTYYDYGMDVWGQGTLVTVSS
VL: QSVLTQPPSASGTPGQRVTISCSGSSSNIGNNAVTWYQQLPGTAPKLLIYSDNHRPSGVPDRFSGSKSGTSASLAISGLRSEDEADYYCGTWDASLSGYVFGGGTKLTVL
notes: Lambda light chain

molecular target: Fc fragment of IgG1; assay: ELISA, coated Fc fragment of IgG1

**Q.** B1 was tested. Which binding did it give?
**A.** The binding was “no binding (tested: 67 nM clec14a-CTLD IgG (Example 8))”.

**Q.** How did the binding turn out when B2 was run?
**A.** Its binding is “no binding (tested: 67 nM clec14a-CTLD IgG (Example 8))”.

**Q.** With B3 as the binder, how does the binding read?
**A.** Its binding is “no binding (tested: 67 nM clec14a-CTLD IgG (Example 8))”.

**Q.** For B4, which binding is on record?
**A.** The binding was “no binding (tested: 67 nM clec14a-CTLD IgG (Example 8))”.
